{"sequences": {"note": "Amino acid sequences for entries named in this document (tags omitted).", "UniProt P46937": "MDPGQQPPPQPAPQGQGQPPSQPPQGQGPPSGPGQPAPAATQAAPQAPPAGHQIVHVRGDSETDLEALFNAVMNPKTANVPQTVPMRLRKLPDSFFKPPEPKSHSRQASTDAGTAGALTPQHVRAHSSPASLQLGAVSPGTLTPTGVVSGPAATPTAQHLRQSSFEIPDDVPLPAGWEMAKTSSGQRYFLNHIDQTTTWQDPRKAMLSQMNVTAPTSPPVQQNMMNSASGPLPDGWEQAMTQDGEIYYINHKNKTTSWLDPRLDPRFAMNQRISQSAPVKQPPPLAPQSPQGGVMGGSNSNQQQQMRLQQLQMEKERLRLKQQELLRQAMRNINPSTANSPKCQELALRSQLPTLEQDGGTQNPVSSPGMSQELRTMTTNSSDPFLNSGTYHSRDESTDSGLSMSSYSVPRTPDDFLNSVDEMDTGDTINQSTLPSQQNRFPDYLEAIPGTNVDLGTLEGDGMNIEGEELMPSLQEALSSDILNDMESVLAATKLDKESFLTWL"}, "source": "paper PMC6940936", "key": {"[1]": {"target": "phospho-YAP-S127 (human (endogenous in HaCaT and primary foreskin keratinocytes)) (UniProt P46937)", "test": "co-IP; lysate of primary foreskin keratinocytes; IP with anti-pYAP or anti-YAP antibody and protein-G Dynabeads; controls rabbit IgG alone and input; Western blot"}, "[2]": {"target": "yes-associated protein (human (endogenous in HaCaT and primary foreskin keratinocytes)) (UniProt P46937)", "test": "co-IP; lysate of primary foreskin keratinocytes; IP with anti-pYAP or anti-YAP antibody and protein-G Dynabeads; controls rabbit IgG alone and input; Western blot"}}, "note": "These are yes or no findings as the source states them, for the method shown. Binding seen in cells or lysates may run through a third protein. Some entries that bind do so weakly or less than the wild type."}
{"binder": "Plakophilin 1 (protein, UniProt Q13835 1-747) MNHSPLKTALAYECFQDQDNSTLALPSDQKMKTGTSGRQRVQEQVMMTVKRQKSKSSQSSTLSHSNRGSMYDGLADNYNYGTTSRSSYYSKFQAGNGSWGYPIYNGTLKREPDNRRFSSYSQMENWSRHYPRGSCNTTGAGSDICFMQKIKASRSEPDLYCDPRGTLRKGTLGSKGQKTTQNRYSFYSTCSGQKAIKKCPVRPPSCASKQDPVYIPPISCNKDLSFGHSRASSKICSEDIECSGLTIPKAVQYLSSQDEKYQAIGAYYIQHTCFQDESAKQQVYQLGGICKLVDLLRSPNQNVQQAAAGALRNLVFRSTTNKLETRRQNGIREAVSLLRRTGNAEIQKQLTGLLWNLSSTDELKEELIADALPVLADRVIIPFSGWCDGNSNMSREVVDPEVFFNATGCLRKRLGMRELLALVPQRATSSRVNLSSADAGRQTMRNYSGLIDSLMAYVQNCVAASRCDDKSVENCMCVLHNLSYRLDAEVPTRYRQLEYNARNAYTEKSSTGCFSNKSDKMMNNNYDCPLPEEETNPKGSGWLYHSDAIRTYLNLMGKSKKDATLEACAGALQNLTASKGLMSSGMSQLIGLKEKGLPQIARLLQSGNSDVVRSGASLLSNMSRHPLLHRVMGNQVFPEVTRLLTSHTGNTSNSEDILSSACYTVRNLMASQPQLAKQYFSSSMLNNIINLCRSSASPKAAEAARLLLSDMWSSKELQGVLRQQGFDRNMLGTLAGANSLRNFTSRF", "values": [{"measurement": "binding", "setting": "[1]", "value": "binds"}, {"measurement": "binding", "setting": "[2]", "value": "binds"}]}
